Measured values published in patent US11773108B2, “Indene derivatives useful in treating pain and inflammation” (TARO PHARMACEUTICALS INC., priority 2018, dated 2023).

Tested on: Mice (male, C57BL/6)
Assay: Formalin pain assay in mice
Type: in vivo, mouse
Details: standard compound, 2.5% formalin in left hind paw
Description: Mice (male, C57BL/6) were placed singly in a Perspex chamber for approximately 30 min on three successive days to acclimate and thereby reduce stress-induced behaviors. On the fourth day, the experimental animals received a 25 μl injection of 2.5% formalin beneath the left plantar skin using a 29-gauge syringe. […] The total time spent on flinches/licking/biting of the hind paw was recorded by visual observation for every 5 min period/interval for total observation duration of 60 min in two phases, the early phase (0-5 min) and the late phase (15-40 min). Observers were blinded to the treatment group allocation.
For test compounds, % protection from 0-60 min was used to assess activity. Scoring for the test compounds was as follows: “A” represents a % protection of 81 to 100%, “B” represents a % protection of 61 to 80%, “C” represents a % protection of 31 to 60% and “D” represents a % protection of 0 to 30%.

## COc1cccc(C2(O)CCCCC2CN(C)C)c1 (stereo not shown) [tramadol, reference compound]
  Average AUC % Inhibition: 59%
